# Assay results: PubChem BioAssay AID2685 (National Center for Advancing Translational Sciences (NCATS), 2010)
# The list shows a part of the results. These are further read-outs of the screen, such as a control signal, another cell line or another target. No call is given for them. Compounds called inactive in the main read-out are mostly missing here. Potencies come from curve fits of mixed quality, noted in brackets.
# Experiment: qHTS Assay for Lipid Storage Modulators in Drosophila S3 Cells;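 as to cell number change: cells counted by Cell Tracker Red CMTPX staining in the red channel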
# Conditions: BODIPY lipid droplet fluorescence, 18-24 h; for cell number change: measured here: cell count max response, cells fed with added oleic acid
# Method in brief: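 Laser-scanning cytometry quantifies lipid droplet accumulation (500–530 nm total intensity; droplet/cell object ratio) in oleic acid-fed (400 uM added) Drosophila S3 cells treated with a concentration series. 20 uM Triacsin C defined 100% inhibition.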
# [1] = measured here: lipid fluorescence (Fed channel) AC50, cells fed with added oleic acid
# [2] = measured here: cell number channel AC50, cells fed with added oleic acid
SMILES,cell number change,AC50 [1],AC50 [2]
C/C(=N\NC(=O)CCCNc1ccc(C)cc1)c1ccccn1,16.7%,"4.61 µM [rising, full curve]",–
COC(=O)C1=C(C)N(CCc2ccccc2)C(=O)C1(NS(=O)(=O)c1ccc(NC(C)=O)cc1)C(F)(F)F (configuration not stated),34%,"0.731 µM [rising, partial curve, poor fit]","0.0517 µM [rising, full curve, poor fit]"
COc1c(Cl)cc(-c2noc(C)c2C(=O)NCc2ccccc2)cc1Cl,–,"23.1 µM [rising, single point]",–
CCOc1cc(CNCCc2ccc(S(N)(=O)=O)cc2)ccc1OCc1ccccc1,-28%,"29.1 µM [falling, single point]",–
COc1ccc(OS(=O)(=O)Cc2ccccc2)cc1,15.1%,"6.51 µM [falling, full curve, poor fit]",–
Cc1ccc(NC(=O)COC(=O)C2CCC(=O)N2)c(S(=O)(=O)N2CCOCC2)c1 (configuration not stated),–,"23.1 µM [falling, partial curve]",–
O=C(NCc1ccc(F)cc1)c1ccc(NC(=O)C2CCCO2)cc1 (configuration not stated),12.9%,"18.4 µM [rising, single point]",–
Nc1ccc(NC(=O)CCN2CCOCC2)cc1,7.14%,"4.11 µM [falling, single point]",–
CC(=O)NC(CC(=O)Nc1ccc(S(=O)(=O)N2CCCCC2)cc1)c1ccccc1 (configuration not stated),–,–,"0.164 µM [rising, full curve, poor fit]"
O=C(Cc1ccccn1)c1ccc(F)cc1,9.44%,–,–
Nn1c(Cc2cccc3ccccc23)nnc1SCn1nnc2ccccc2c1=O,53.1%,"5.8 µM [rising, partial curve]","2.59 µM [rising, single point]"
CCOC(=O)C1CCCN(c2c(NCCN(CC)c3ccccc3)c(=O)c2=O)C1 (configuration not stated),44%,–,"11.6 µM [rising, partial curve]"
O=C(Cn1nnc(-c2ccc3c(c2)OCO3)n1)Nc1ccccc1C(=O)O,-16.1%,"20.6 µM [rising, partial curve, poor fit]",–
Cc1cc(C)nc(NN=C(c2ccccc2)c2ccccc2)n1,41.8%,"7.31 µM [rising, partial curve]","8.2 µM [rising, partial curve]"
CCN(CCn1cccn1)Cc1cn[nH]c1-c1ccc(OC)cc1F,-0.363%,"6.51 µM [falling, single point]",–
CCCOc1ccc(S(=O)(=O)n2cc(F)c(=O)[nH]c2=O)cc1,170%,"8.2 µM [rising, partial curve]","9.2 µM [rising, partial curve]"
Cn1c(=O)n(C)c2cc([N+](=O)[O-])c(N3CCN(CCO)CC3)cc21,-9.72%,–,–
COc1cc(OC)c2c(C)cc(=O)oc2c1C(CCN1CCOCC1)c1ccc(N(C)C)cc1 (configuration not stated),16.2%,"0.058 µM [rising, full curve, poor fit]",–
O=S(=O)(NCCN1CCOCC1)c1cc(Cl)ccc1Cl,-14%,–,–
CCN(CCCNC(=O)c1[nH]c(C)c(C(C)=O)c1C)c1ccccc1,–,"6.51 µM [rising, single point]",–

SMILES,cell number change,AC50 [1],AC50 [2]
Cc1cc(C)nc(N2CCC(C(=O)NNC(=O)c3ccccc3)CC2)n1,24.6%,"8.2 µM [rising, partial curve]",–
O=S(=O)(c1ccccc1OC(F)(F)F)N1CCN(c2ccnc3cc(Cl)ccc23)CC1,102%,–,"29.1 µM [rising, single point]"
COc1ccc(S(=O)(=O)N2CCC(c3cc(-c4cccc5ccccc45)n[nH]3)CC2)cc1,26.3%,"29.1 µM [rising, single point]",–
O=C(NCC(=O)N1CCN(c2ccccc2)CC1)c1ccc(Cl)cc1,21.7%,"7.31 µM [rising, partial curve, poor fit]",–
CCCCC(CC)CNC(=O)CN(C)S(=O)(=O)c1cccc2nsnc12 (configuration not stated),-7.24%,–,–
Cc1ccc2[nH]c3c(c2c1)CN(C(=O)CN1CC(C)OC(C)C1)CC3 (configuration not stated),23.8%,"23.1 µM [rising, single point]",–
COc1ccc(NC(=O)C2CCN(S(=O)(=O)c3ccc4c(c3)NC(=O)CO4)CC2)cc1,28.6%,"18.4 µM [rising, partial curve]","5.8 µM [rising, single point]"
CCOC(=O)c1sc(NC(=O)c2sc(C)nc2C)nc1C,-19.1%,"0.58 µM [rising, partial curve, poor fit]",–
O=C(Nc1ccc(OC(F)F)c(Cl)c1)C(c1ccccc1)c1ccccc1,-25.2%,"20.6 µM [falling, single point]",–
COc1cc(/C=C2/C(=O)NN(c3ccccc3)C2=O)cc(Br)c1O,-4.23%,–,–
Clc1ccc(SCCOCCN2CCOCC2)cc1,-5.77%,"11.6 µM [rising, partial curve]",–
CSc1ccccc1OCc1cc(C(=O)N(C)CCc2c(C)n[nH]c2C)no1,0.708%,–,–
O=S(=O)(N1CCCCC1)N1CCN(S(=O)(=O)N2CCCCC2)CC1,-11.8%,"6.51 µM [falling, single point]","2.59 µM [falling, partial curve]"
Cc1ccc(NC2=CC(=O)CC(C)(C)C2)cc1F,-26.4%,–,–
C/C(=N\OCC(=O)Nc1nc2ccccc2s1)c1ccccc1,–,"2.91 µM [rising, full curve]",–
COc1ccccc1-c1cn[nH]c1-c1ccc(OCc2ccc(F)cc2)cc1O,-58.5%,–,"29.1 µM [falling, single point]"
CCN(CC)S(=O)(=O)c1cccc(NC(=O)CCNC(=O)c2ccc([N+](=O)[O-])cc2)c1,-13.1%,"18.4 µM [falling, single point]",–
C#Cc1ccc(C(=O)Nc2ccc(N3CCC(C)CC3)c(C(N)=O)c2)cc1,5.89%,–,–
CCN(CC)C(=O)CSc1nnc(-n2nc(C)cc2C)c2ccccc12,91.7%,"2.06 µM [rising, full curve]","11.6 µM [rising, partial curve]"

# Whole records from above.
# Cc1ccc(NC2=CC(=O)CC(C)(C)C2)cc1F is entered as cell number change: -26.4%
# CCCCC(CC)CNC(=O)CN(C)S(=O)(=O)c1cccc2nsnc12 (configuration not stated) is entered as cell number change: -7.24%
